In the supplement of paper PMC6078165:
The reference is the same well before dosing, and untreated signal decays as well.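 Fibroblast labels name human fibroblasts: mostly primary ones from tissues such as uterus (C12385, HUF), lung (H6013), bone (Hs27A), adrenal (HADF) and skin (WS1), plus mammary HMF and breast cancer-associated Hs343T. The cancer cells are basal-like or mesenchymal-like triple-negative breast cancer lines. The paper calls a changed response a hit when it shifts by more than 3x the replicate standard deviation. The tissue of the other fibroblasts is not given here.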

Tested on: HCC1143
Test: relative JC-1 red fluorescence (viability) vs pre-drug, coculture with fibroblast (fraction); higher = more viable cancer cells
Experimental: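 JC-1 labelled TNBC cells cocultured 1:1 (1,500 cells each) with CellTrace Violet stained primary or stromal fibroblasts in 384-well plates in FluoroBrite medium, treated with one of 42 anticancer drugs at 0.1, 1, 10 or 100 uM. JC-1 red fluorescence (mitochondrial integrity in cancer cells only) was read by plate reader every 8 h for 72 h. Values are normalised to each well's pre-drug value. The stock of one drug was tenfold lower, so its dose labels may be too high.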

COc1cc([C@@H]2c3cc4c(cc3[C@@H](O[C@@H]3O[C@@H]5CO[C@@H](C)O[C@H]5[C@H](O)[C@H]3O)[C@H]3COC(=O)[C@H]23)OCO4)cc(OC)c1O [Etoposide]
relative JC-1 red fluorescence
Conditions	8 h	16 h	24 h	32 h	40 h	48 h	56 h	64 h	72 h
10 µM, coculture fibroblast: C12385	0.843	0.768	0.7197	0.658	0.61	0.584	0.55	0.512	0.499
10 µM, coculture fibroblast: H6013	0.762	0.683	0.64	0.631	0.57	0.569	0.536	0.521	0.483
10 µM, coculture fibroblast: H6019	0.7921	0.721	0.662	0.597	0.562	0.528	0.488	0.442	0.415
10 µM, coculture fibroblast: H6076	0.8081	0.833	0.777	0.705	0.681	0.659	0.619	0.59	0.588
10 µM, coculture fibroblast: H6231	0.836	0.846	0.773	0.645	0.678	0.647	0.612	0.571	0.55
10 µM, coculture fibroblast: HADF	0.756	0.709	0.693	0.714	0.614	0.5868	0.5614	0.533	0.542
10 µM, coculture fibroblast: HCFa	0.793	0.724	0.688	0.669	0.599	0.581	0.544	0.513	0.467
10 µM, coculture fibroblast: HCPF	0.791	0.7643	0.714	0.66	0.642	0.619	0.581	0.544	0.542
10 µM, coculture fibroblast: HHSteC	0.852	0.809	0.79	0.772	0.723	0.713	0.674	0.652	0.593
10 µM, coculture fibroblast: HMF	0.796	0.8444	0.7574	0.6412	0.6571	0.625	0.5799	0.544	0.515
10 µM, coculture fibroblast: HPFa	0.897	0.819	0.78	0.697	0.659	0.625	0.5785	0.5421	0.505
10 µM, coculture fibroblast: HUF	0.873	0.748	0.676	0.601	0.553	0.502	0.444	0.401	0.366
10 µM, coculture fibroblast: Hs5	0.863	0.878	0.837	0.792	0.737	0.712	0.688	0.652	0.6602
10 µM, coculture fibroblast: Hs27A	0.7566	0.718	0.71	0.743	0.664	0.685	0.663	0.661	0.619
10 µM, coculture fibroblast: Hs343T	0.8123	0.821	0.7613	0.666	0.649	0.614	0.5652	0.543	0.515
10 µM, coculture fibroblast: WS1	0.809	0.734	0.693	0.634	0.588	0.556	0.517	0.482	0.455
100 µM, coculture fibroblast: C12385	0.825	0.781	0.708	0.665	0.625	0.597	0.571	0.535	0.53
100 µM, coculture fibroblast: H6013	0.769	0.706	0.658	0.643	0.58	0.572	0.544	0.541	0.518
100 µM, coculture fibroblast: H6019	0.806	0.744	0.712	0.669	0.644	0.627	0.608	0.581	0.57
100 µM, coculture fibroblast: H6076	0.784	0.816	0.769	0.685	0.6814	0.654	0.635	0.617	0.609
100 µM, coculture fibroblast: H6231	0.823	0.792	0.722	0.63	0.637	0.608	0.577	0.545	0.522
100 µM, coculture fibroblast: HADF	0.7732	0.7355	0.7014	0.696	0.584	0.553	0.525	0.508	0.497
100 µM, coculture fibroblast: HCFa	0.792	0.755	0.717	0.718	0.644	0.635	0.602	0.582	0.571
100 µM, coculture fibroblast: HCPF	0.825	0.784	0.7471	0.707	0.683	0.662	0.65	0.648	0.678
100 µM, coculture fibroblast: HHSteC	0.843	0.798	0.777	0.753	0.686	0.665	0.632	0.624	0.582
100 µM, coculture fibroblast: HMF	0.799	0.789	0.744	0.654	0.64	0.615	0.577	0.561	0.543
100 µM, coculture fibroblast: HPFa	0.907	0.838	0.807	0.721	0.675	0.664	0.608	0.593	0.578
100 µM, coculture fibroblast: HUF	0.882	0.7966	0.72083	0.637	0.586	0.562	0.515	0.479	0.456
100 µM, coculture fibroblast: Hs5	0.848	0.856	0.82	0.788	0.733	0.696	0.681	0.669	0.684
100 µM, coculture fibroblast: Hs27A	0.718	0.6506	0.622	0.6676	0.551	0.569	0.544	0.537	0.515
100 µM, coculture fibroblast: Hs343T	0.8035	0.882	0.818	0.665	0.679	0.624	0.561	0.54	0.505
100 µM, coculture fibroblast: WS1	0.8275	0.758	0.695	0.617	0.563	0.537	0.51	0.484	0.473
